Read-outs that look alike come from different tables or passages of the source. No constants are given. Whether binding was seen depends on the method and setting. Some entries that bind do so weakly or less than the wild type.

Amino acid sequences for entries named in this document (tags omitted).
UniProt P05756: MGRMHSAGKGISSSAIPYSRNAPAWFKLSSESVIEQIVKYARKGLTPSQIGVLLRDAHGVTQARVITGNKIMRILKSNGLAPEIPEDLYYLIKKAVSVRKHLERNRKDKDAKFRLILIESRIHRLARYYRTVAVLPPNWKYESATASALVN
UniProt P25586: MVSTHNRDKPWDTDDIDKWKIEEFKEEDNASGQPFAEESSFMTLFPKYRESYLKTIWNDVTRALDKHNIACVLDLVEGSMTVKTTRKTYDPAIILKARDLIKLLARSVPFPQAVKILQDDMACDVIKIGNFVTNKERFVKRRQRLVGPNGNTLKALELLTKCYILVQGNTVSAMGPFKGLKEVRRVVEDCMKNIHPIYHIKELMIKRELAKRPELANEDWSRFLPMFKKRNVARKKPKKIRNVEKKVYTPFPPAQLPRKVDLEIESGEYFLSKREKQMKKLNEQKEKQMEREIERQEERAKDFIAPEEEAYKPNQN
UniProt P35194: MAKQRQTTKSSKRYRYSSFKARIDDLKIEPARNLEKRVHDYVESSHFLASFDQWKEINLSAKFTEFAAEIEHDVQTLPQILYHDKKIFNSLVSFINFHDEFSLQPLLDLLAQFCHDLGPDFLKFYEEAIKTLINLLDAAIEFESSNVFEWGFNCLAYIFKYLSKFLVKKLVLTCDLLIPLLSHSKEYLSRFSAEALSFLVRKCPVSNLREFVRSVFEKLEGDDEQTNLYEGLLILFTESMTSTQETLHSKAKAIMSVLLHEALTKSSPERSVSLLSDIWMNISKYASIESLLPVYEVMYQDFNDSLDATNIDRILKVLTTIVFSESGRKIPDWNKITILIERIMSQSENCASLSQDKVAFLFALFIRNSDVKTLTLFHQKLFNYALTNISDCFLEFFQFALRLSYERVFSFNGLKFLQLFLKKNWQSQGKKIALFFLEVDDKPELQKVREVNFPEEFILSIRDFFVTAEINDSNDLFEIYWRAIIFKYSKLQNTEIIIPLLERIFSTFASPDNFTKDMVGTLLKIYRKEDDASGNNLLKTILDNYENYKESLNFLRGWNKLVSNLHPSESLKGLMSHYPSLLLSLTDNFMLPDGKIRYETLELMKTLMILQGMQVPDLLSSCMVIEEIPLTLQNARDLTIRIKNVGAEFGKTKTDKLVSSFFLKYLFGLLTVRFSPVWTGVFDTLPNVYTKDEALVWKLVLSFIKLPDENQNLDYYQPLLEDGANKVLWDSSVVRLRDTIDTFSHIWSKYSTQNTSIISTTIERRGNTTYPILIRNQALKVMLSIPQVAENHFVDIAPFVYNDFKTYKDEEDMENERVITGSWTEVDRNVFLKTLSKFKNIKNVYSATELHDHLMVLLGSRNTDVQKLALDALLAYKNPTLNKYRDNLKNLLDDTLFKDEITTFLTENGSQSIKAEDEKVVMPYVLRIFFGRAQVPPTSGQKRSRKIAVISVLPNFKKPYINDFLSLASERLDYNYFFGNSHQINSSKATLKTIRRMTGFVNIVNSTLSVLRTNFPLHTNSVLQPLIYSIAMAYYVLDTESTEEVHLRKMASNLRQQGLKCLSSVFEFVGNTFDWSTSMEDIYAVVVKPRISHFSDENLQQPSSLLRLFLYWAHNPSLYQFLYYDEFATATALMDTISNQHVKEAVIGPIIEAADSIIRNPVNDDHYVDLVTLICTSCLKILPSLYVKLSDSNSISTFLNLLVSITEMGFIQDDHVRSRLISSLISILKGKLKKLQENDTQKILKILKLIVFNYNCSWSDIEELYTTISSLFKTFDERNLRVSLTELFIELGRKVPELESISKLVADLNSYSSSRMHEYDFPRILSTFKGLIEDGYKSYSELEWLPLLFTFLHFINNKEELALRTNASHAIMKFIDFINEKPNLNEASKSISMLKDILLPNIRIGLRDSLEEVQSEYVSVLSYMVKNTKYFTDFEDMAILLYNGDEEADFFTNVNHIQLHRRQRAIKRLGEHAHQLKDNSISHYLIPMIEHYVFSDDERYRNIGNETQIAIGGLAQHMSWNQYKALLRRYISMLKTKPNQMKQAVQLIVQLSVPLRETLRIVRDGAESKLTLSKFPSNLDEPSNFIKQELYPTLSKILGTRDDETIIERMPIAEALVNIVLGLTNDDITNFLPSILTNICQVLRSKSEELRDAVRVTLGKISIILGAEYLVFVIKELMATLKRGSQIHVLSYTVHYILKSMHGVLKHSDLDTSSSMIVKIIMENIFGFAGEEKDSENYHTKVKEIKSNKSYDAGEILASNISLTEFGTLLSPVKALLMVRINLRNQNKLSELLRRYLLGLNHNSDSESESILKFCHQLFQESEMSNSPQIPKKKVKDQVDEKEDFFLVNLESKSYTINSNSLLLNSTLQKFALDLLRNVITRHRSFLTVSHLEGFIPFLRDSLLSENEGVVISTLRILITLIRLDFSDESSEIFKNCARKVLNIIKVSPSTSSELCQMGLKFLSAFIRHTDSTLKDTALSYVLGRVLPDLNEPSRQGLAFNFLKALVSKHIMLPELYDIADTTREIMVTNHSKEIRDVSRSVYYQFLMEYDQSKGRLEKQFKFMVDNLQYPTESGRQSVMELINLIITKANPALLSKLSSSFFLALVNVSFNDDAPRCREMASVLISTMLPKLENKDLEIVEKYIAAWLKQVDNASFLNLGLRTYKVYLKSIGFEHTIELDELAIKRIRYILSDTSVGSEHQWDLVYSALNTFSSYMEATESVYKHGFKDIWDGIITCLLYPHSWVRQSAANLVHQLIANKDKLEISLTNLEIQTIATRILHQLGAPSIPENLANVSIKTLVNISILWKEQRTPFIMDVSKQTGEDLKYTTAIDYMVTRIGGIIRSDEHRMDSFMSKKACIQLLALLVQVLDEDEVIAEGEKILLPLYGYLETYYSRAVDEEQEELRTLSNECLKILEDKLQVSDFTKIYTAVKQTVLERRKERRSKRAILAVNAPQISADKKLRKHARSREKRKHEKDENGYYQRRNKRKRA
UniProt P40055: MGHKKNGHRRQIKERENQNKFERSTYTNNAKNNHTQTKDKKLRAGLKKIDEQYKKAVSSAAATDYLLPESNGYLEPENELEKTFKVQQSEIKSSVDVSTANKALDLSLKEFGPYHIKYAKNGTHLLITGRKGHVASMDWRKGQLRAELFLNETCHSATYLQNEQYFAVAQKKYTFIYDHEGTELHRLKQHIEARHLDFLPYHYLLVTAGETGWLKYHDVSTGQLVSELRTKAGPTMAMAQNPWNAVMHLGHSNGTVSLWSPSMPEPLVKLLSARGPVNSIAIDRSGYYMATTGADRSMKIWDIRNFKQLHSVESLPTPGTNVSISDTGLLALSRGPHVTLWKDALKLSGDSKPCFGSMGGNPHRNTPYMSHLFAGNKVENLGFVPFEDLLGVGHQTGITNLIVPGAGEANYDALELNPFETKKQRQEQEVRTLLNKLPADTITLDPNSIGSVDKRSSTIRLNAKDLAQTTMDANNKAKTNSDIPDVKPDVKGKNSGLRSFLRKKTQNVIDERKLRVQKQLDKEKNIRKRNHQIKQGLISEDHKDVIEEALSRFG

Assay in all cases: cryo-EM structure
Experiment [1] has as its target T1, Rrp7 (S. cerevisiae (endogenous in strain BY4741)) (UniProt P25368).
T1 sequence: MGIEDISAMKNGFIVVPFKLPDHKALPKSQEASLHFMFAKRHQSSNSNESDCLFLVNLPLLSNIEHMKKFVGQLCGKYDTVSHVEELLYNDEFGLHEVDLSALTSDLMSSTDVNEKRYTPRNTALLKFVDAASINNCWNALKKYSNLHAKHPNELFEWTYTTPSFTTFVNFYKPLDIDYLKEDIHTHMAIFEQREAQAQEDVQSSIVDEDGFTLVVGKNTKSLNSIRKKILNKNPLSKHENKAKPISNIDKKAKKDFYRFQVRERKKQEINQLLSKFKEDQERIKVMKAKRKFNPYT

The target in experiment [2] is T2, Utp22 (S. cerevisiae (endogenous in strain BY4741)) (UniProt P53254).
T2 sequence: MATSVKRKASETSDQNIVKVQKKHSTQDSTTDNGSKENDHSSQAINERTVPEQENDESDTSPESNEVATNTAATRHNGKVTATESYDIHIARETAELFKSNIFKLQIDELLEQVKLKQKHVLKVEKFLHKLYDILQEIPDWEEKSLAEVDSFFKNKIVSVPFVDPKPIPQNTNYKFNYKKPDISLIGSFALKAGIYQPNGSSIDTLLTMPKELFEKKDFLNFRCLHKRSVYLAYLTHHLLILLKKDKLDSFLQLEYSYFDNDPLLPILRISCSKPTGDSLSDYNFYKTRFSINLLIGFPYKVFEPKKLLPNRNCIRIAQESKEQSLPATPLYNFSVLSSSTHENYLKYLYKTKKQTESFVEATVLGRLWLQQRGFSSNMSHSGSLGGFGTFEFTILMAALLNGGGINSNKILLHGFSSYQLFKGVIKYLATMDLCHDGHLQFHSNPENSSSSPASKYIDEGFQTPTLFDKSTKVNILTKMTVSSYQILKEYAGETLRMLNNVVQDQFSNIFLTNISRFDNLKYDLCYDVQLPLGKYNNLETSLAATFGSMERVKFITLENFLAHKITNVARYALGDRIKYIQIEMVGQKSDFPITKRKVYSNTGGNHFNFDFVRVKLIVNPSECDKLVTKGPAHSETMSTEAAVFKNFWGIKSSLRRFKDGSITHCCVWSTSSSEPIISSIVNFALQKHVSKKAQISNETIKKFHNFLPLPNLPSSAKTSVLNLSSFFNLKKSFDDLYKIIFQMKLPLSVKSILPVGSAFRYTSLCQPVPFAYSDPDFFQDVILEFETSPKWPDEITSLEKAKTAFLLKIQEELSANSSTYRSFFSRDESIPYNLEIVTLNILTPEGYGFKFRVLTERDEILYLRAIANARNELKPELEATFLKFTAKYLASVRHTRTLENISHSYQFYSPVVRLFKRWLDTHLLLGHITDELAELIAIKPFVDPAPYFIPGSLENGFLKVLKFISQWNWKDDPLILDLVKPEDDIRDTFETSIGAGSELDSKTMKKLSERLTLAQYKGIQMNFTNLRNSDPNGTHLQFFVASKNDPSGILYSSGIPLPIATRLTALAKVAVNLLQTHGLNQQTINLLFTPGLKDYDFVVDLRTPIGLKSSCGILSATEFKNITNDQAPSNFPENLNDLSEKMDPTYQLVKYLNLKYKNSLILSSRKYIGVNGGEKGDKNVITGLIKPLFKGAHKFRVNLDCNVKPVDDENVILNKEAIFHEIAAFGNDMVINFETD

Experiment [3] addresses T2, Utp22 (S. cerevisiae (endogenous in strain BY4741)). This is another data set of the same source.
Experiment [4] has as its target Rps13 (S. cerevisiae (endogenous in strain BY4741)) (UniProt P05756).
In experiment [5] the target is T3, Utp4 (S. cerevisiae (endogenous in strain BY4741)) (UniProt Q06679).
T3 sequence: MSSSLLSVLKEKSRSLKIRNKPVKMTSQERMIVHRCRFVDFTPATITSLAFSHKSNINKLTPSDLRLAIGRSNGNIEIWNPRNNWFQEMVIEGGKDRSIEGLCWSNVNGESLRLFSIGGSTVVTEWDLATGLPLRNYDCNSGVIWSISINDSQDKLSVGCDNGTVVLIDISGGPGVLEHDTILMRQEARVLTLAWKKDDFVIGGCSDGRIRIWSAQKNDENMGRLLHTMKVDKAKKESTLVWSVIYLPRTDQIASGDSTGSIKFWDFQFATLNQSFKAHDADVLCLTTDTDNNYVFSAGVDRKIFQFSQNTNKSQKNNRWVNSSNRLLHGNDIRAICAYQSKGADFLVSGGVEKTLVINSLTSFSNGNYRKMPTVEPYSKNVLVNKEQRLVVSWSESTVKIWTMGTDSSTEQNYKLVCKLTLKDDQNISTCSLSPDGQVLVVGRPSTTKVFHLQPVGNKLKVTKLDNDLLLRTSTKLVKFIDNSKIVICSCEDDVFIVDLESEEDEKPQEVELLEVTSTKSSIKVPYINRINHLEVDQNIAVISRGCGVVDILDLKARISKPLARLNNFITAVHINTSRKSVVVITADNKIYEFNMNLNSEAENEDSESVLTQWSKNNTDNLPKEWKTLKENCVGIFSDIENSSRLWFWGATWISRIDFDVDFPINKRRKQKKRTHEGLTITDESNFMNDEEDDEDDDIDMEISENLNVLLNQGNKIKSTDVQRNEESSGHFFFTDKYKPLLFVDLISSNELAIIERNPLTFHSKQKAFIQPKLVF

Experiment [6] deals with Krr1 (S. cerevisiae (endogenous in strain BY4741)) (UniProt P25586).
Experiment [7] deals with Utp20 (S. cerevisiae (endogenous in strain BY4741)) (UniProt P35194).

Regarding Utp7 (from UniProt P40055 1-554), the binding entry in experiment [1] and in experiment [2] was “binds” throughout.

B1: Rrp7 (protein, UniProt P25368 1-297)
chain: MGIEDISAMKNGFIVVPFKLPDHKALPKSQEASLHFMFAKRHQSSNSNESDCLFLVNLPLLSNIEHMKKFVGQLCGKYDTVSHVEELLYNDEFGLHEVDLSALTSDLMSSTDVNEKRYTPRNTALLKFVDAASINNCWNALKKYSNLHAKHPNELFEWTYTTPSFTTFVNFYKPLDIDYLKEDIHTHMAIFEQREAQAQEDVQSSIVDEDGFTLVVGKNTKSLNSIRKKILNKNPLSKHENKAKPISNIDKKAKKDFYRFQVRERKKQEINQLLSKFKEDQERIKVMKAKRKFNPYT
B1: the binding entry in experiment [3] and in experiment [4] was “binds” each time.

B2: Utp5 (protein, UniProt Q04177 1-643)
chain: MDSPVLQSAYDPSGQYLCYVTVALDKQRVGVQPTQRATSSGVDTVWNENFLYLEDSKLKVTCLKWVNLASSDTVAIILGMNNGEIWLYSVLANEVTYKFTTGNSYEIKDIDLMGNQLWCIDSSDAFYQFDLLQFKLLQHFRINNCVQLNKLTIVPAGDSVAQLLVASHSISLIDIEEKKVVMTFPGHVSPVSTLQVITNEFFISGAEGDRFLNVYDIHSGMTKCVLVAESDIKELSHSGQADSIAVTTEDGSLEIFVDPLVSSSTKKRGNKSKKSSKKIQIVSKDGRKVPIYNAFINKDLLNVSWLQNATMPYFKNLQWREIPNEYTVEISLNWNNKNKSADRDLHGKDLASATNYVEGNARVTSGDNFKHVDDAIKSWERELTSLEQEQAKPPQANELLTETFGDKLESSTVARISGKKTNLKGSNLKTATTTGTVTVILSQALQSNDHSLLETVLNNRDERVIRDTIFRLKPALAVILLERLAERIARQTHRQGPLNVWVKWCLIIHGGYLVSIPNLMSTLSSLHSTLKRRSDLLPRLLALDARLDCTINKFKTLNYEAGDIHSSEPVVEEDEDDVEYNEELDDAGLIEDGEESYGSEEEEEGDSDNEEEQKHTSSKQDGRLETEQSDGEEEAGYSDVEME
As for B2, the binding result in experiment [5] is “binds”.

B3: Faf1 (protein, UniProt P40546 1-346)
chain: MTLDDDDYIKQMELQRKAFESQFGSLESMGFEDKTKNIRTEVDTRDSSGDEIDNSDHGSDFKDGTIESSNSSDEDSGNETAEENNQDSKPKTQPKVIRFNGPSDVYVPPSKKTQKLLRSGKTLTQINKKLESTEAKEEKEDETLEAENLQNDLELQQFLRESHLLSAFNNGGSGSTNSGVSLTLQSMGGGNDDGIVYQDDQVIGKARSRTLEMRLNRLSRVNGHQDKINKLEKVPMHIRRGMIDKHVKRIKKYEQEAAEGGIVLSKVKKGQFRKIESTYKKDIERRIGGSIKARDKEKATKRERGLKISSVGRSTRNGLIVSKRDIARISGGERSGKFNGKKKSRR
Turning to B3, the binding result in experiment [6] was “binds”.

B4: Utp14 (protein, UniProt Q04500 1-899)
chain: MAKKKSKSRSKSSRRVLDALQLAEREINGEFDNSSDNDKRHDARRNGTVVNLLKRSKGDTNSDEDDIDSESFEDEELNSDEALGSDDDYDILNSKFSQTIRDKKENANYQEEEDEGGYTSIDEEDLMPLSQVWDMDEKTAQSNGNDDEDASPQLKLQDTDISSESSSSEESESESEDDEEEEDPFDEISEDEEDIELNTITSKLIDETKSKAPKRLDTYGSGEANEYVLPSANAASGASGKLSLTDMMNVIDDRQVIENANLLKGKSSTYEVPLPQRIQQRHDRKAAYEISRQEVSKWNDIVQQNRRADHLIFPLNKPTEHNHASAFTRTQDVPQTELQEKVDQVLQESNLANPEKDSKFEELSTAKMTPEEMRKRTTEMRLMRELMFREERKARRLKKIKSKTYRKIKKKELMKNRELAAVSSDEDNEDHDIARAKERMTLKHKTNSKWAKDMIKHGMTNDAETREEMEEMLRQGERLKAKMLDRNSDDEEDGRVQTLSDVENEEKENIDSEALKSKLGKTGVMNMAFMKNGEAREREANKETLRQLRAVENGDDIKLFESDEEETNGENIQINKGRRIYTPGSLESNKDMNELNDHTRKENKVDESRSLENRLRAKNSGQSKNARTNAEGAIIVEEESDGEPLQDGQNNQQDEEAKDVNPWLANESDEEHTVKKQSSKVNVIDKDSSKNVKAMNKMEKAELKQKKKKKGKSNDDEDLLLTADDSTRLKIVDPYGGSDDEQGDNVFMFKQQDVIAEAFAGDDVVAEFQEEKKRVIDDEDDKEVDTTLPGWGEWAGAGSKPKNKKRKFIKKVKGVVNKDKRRDKNLQNVIINEKVNKKNLKYQSSAVPFPFENREQYERSLRMPIGQEWTSRASHQELIKPRIMTKPGQVIDPLKAPFK
As to B4, in experiment [7], the binding entry is “binds”.
